{"sequences": {"note": "Protein sequences, listed by entry. Tags and fused reporters are not part of them. Residues count along the entry.", "UniProt P14867, 28-456": "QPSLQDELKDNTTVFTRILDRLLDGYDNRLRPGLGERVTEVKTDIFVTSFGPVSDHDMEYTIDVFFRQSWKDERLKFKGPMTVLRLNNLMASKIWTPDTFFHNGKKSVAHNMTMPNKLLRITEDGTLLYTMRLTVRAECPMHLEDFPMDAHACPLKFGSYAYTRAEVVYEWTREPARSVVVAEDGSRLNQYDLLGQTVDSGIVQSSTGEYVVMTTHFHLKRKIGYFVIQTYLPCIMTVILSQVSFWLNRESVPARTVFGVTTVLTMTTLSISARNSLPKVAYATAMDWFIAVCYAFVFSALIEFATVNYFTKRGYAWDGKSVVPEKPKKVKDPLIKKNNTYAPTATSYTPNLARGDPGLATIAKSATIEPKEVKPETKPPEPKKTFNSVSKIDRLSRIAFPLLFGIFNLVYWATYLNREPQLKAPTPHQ", "UniProt P18507, 40-475": "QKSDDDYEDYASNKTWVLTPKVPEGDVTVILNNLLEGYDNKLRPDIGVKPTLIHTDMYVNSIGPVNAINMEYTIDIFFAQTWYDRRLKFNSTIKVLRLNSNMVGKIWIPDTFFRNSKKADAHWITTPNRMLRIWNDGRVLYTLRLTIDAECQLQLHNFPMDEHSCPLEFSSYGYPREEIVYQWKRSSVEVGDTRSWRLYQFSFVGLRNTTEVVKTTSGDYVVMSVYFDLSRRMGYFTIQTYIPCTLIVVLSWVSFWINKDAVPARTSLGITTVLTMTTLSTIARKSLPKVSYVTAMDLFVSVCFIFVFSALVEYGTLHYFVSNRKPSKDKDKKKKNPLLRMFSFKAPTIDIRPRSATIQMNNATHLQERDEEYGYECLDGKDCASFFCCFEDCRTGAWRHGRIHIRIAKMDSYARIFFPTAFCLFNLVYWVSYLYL", "UniProt P28472, 26-473": "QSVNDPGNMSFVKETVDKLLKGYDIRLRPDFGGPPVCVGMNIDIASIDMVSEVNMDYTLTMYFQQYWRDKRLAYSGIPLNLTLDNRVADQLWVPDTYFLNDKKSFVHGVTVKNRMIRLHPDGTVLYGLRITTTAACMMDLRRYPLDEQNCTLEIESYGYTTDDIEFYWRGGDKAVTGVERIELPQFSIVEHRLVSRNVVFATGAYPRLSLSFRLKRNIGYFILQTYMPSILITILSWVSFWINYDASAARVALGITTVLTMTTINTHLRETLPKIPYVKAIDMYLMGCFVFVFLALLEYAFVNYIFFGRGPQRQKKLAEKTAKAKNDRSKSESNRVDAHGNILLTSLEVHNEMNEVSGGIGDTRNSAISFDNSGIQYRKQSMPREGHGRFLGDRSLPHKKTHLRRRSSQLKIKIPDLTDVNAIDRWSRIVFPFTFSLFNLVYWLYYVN"}, "source": "paper PMC7006677", "about": "(Pharmacological reports : PR, 2020)", "target": "GABAA receptor (α1β3γ2L), α1 subunit (Homo sapiens, UniProt P14867+P18507+P28472)"}
{"compound": "CN1C(=O)CN=C(c2ccccc2)c2cc(Cl)ccc21", "note": "[Diazepam]", "values": [{"measurement": "two-electrode voltage clamp; potentiation of EC5 GABA currents at 1 and 100 μM", "result": "~ 1 μM"}]}
